# Measured values reported in PubChem BioAssay AID1487 (National Center for Advancing Translational Sciences (NCATS), 2009).
# About 25 (0.01%) of roughly 200,000 compounds were called active. This list was built around the results that the source calls inconclusive (neither active nor inactive); the mix of calls is not that of the screen. Calls come from the whole dose curve; as a rule, active = well fitted inhibition curve with a large enough effect in the signal ratio, with a control signal flat (not every such curve was filed as active); inconclusive = small, poorly fitted or top-dose-only effect, or effect the other way, or a change in a side signal; inactive = flat fitted curve, though single readings scatter; the % refers to the signal ratio. A potency beside an inconclusive call is a rough fit, not a confirmed value.
# Assay: qHTS Assay for Modulators of Lamin A Splicing
# Conditions: HeLa LMNA splicing GFP/RFP minigene ratio, 48 h; ratio change, negative = inhibition: at 46.1 µM (top of the series) unless noted
# Outline: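 S3 HeLa cells stably expressing lamin A-EGFP splicing minigene plus DsRed2, 600 cells/well, 48 h compound exposure at 37C. Laser-scanning cytometry; analysed as GFP (500-530 nm)/RFP (575-640 nm) total intensity ratio; 0.5% DMSO vehicle.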
# % is set by controls: 0 for no effect and ±100 for the full control effect; potency is the fitted concentration of half-maximal effect.
SMILES,"ratio change, negative = inhibition",Potency
O=C(O)CC(NC(=O)Nc1ccccc1)c1ccc(OC2CCCC2)cc1 (centres undefined),inconclusive: 10.2% [at 9.22 µM],
COc1cc(SC)ccc1C(=O)NCCOc1c(C)cc(C)cc1C,inconclusive: -35%,
COc1ccc(-c2nc(CCNC(=O)c3cccs3)cs2)cc1,inconclusive: -7.69% [at 46 µM],
COCCNC(=O)COC(=O)C1=Cc2ccccc2OC1,inconclusive: 2.1% [at 46 µM],
COc1ccccc1OCCCCOc1ccccc1F,inactive: 9.22%,
COc1cc(C(=O)N(Cc2ccco2)Cc2cc3ccccc3[nH]c2=O)cc(OC)c1OC,inactive: -2.06%,
CCc1ccccc1NC(=O)N1CCC(CN2CCc3ccccc3C2)CC1,inactive: -7.9% [at 46 µM],
Cc1cc(C)c(S(=O)(=O)Nc2ccccc2-c2ccccc2)c(C)c1,,"inconclusive: 35.5 µM [falling, single point]"
C[C@H](Cc1ccccc1)Nc1ncnc2c1ncn2[C@@H]1O[C@H](CO)[C@H](O)[C@H]1O,inconclusive: -12.4%,
O=S(=O)(NCCCc1ccccc1)c1cccc2nsnc12,inconclusive: -12.7%,
N#C/C(=C\c1ccncc1)c1nc2ccccc2c(=O)[nH]1,inconclusive: -25.3% [at 46 µM],
C[Se]CCC(N)C(=O)O (centres undefined),,"inconclusive: 0.631 µM [inhibitor, partial curve, poor fit]"
COc1ccc(OC)c(C2NC(=O)c3sc(=S)n(-c4ccccc4)c3N2)c1 (centres undefined),inactive: -0.913%,
Cc1ccc(CSCCNC(=O)c2ccc(C)cc2)cc1,inconclusive: -16.5% [at 46 µM],
O=C(COc1ccccc1)N1CCN(c2ccccc2)CC1,inconclusive: -2.06%,
CCN(CC(=O)NC(C)C)C(=O)CCNC(=O)c1ccc(Cl)cc1,inconclusive: -7.48%,
CCOC(=O)N1CCN(C(=O)C2CCN(S(=O)(=O)c3ccc(F)cc3)CC2)CC1,inconclusive: 19.2% [at 46 µM],
COc1cc(NC(=S)NCCc2c[nH]c3ccccc23)c(OC)cc1Cl,inconclusive: -19.9%,
COc1ccc(Cc2nnc(NC(=O)C(C)(C)C)s2)cc1,inconclusive: -9.34% [at 46 µM],
CC(=O)Nc1ccc(S(=O)(=O)N2C3CCCC2CC(NC(=O)C2CCCCC2)C3)cc1 (centres undefined),inactive: 2.52%,
COc1ccc(OC)c(C(=O)COC(=O)C2CC3CCCC(C2)C3=O)c1 (centres undefined),inactive: 3.46%,
COc1ccc(OC)c(CNC(=O)CCc2nc(-c3cccs3)no2)c1,inconclusive: -1.01%,
O=C1C2C3C=CC(C2C(=O)N1c1ccccc1O)C1C2C(=O)N(c4ccccc4O)C(=O)C2C31 (centres undefined),inconclusive: -12.2% [at 46 µM],
C/C(=N\NC(=O)COc1ccccc1)c1cccs1,inconclusive: 6.29%,
CCOC(=O)Cc1csc(SCC(=O)c2c(N)n(CC(C)C)c(=O)n(C)c2=O)n1,inconclusive: 28.2%,
O=C(CS(=O)(=O)c1cccc2nsnc12)Nc1ccc(F)cc1,inactive: -6.5% [at 46 µM],
N=c1nc(SCCC(=O)O)ss1,inactive: -5.1%,

SMILES,"ratio change, negative = inhibition",Potency
O=C(N/N=C/c1ccccn1)c1cccc([N+](=O)[O-])c1,,"inconclusive: 35.5 µM [falling, single point]"
Cc1cc(-c2n[nH]c(=S)n2Cc2ccco2)n(C)n1,inactive: -6.69%,
Cc1cc(NCCCN(C)C)n2nc(-c3cccs3)cc2n1,,"inconclusive: 11.2 µM [falling, partial curve]"
CCCCCCn1c(CN2CCCCC2C)nc2c1c(=O)n(C)c(=O)n2C (centres undefined),inactive: -12.3%,
Cc1noc(C)c1C(=O)Nc1ccccc1-c1ccccc1,inactive: 17.9%,
O=C(COC(=O)c1ccc(O)cc1)Nc1ncc(Cl)cc1Cl,inconclusive: 7.72% [at 46 µM],
COc1ccc(/C=C(/NC(=O)c2ccccc2Cl)C(=O)O)cc1,inactive: 3.9% [at 46 µM],
COc1cccc(C=NCCNC(=O)c2nonc2N)c1O,inconclusive: 3.29%,
O=C(NP(=O)(N1CCCC1)N1CCCC1)C1=C(N2CCOCC2)/C(=C/c2cccc([N+](=O)[O-])c2)CC1,inactive: -20.4% [at 46 µM],
Cc1ccc(C2CC(=O)N(Cc3ccccc3)c3c2c(C)nn3-c2nc(C)cc(C)n2)cc1 (centres undefined),inactive: 22.8% [at 46 µM],
O=C(Nc1ccc2ccccc2c1)c1ccc(NS(=O)(=O)c2ccc(Br)s2)cc1,,"inconclusive: 35.5 µM [rising, single point]"
Cc1ccc(Cl)cc1-n1ncc2c(NCCCn3ccnc3)ncnc21,inconclusive: -24.6% [at 46 µM],
O=C(NCCc1ccc(Cl)cc1)C1CCN(S(=O)(=O)c2cccs2)CC1,inactive: -6.43%,
COc1ccc(S(=O)(=O)N2CCOCC2)cc1NC(=O)CSc1ncnc2ccccc12,inconclusive: -46.9% [at 46 µM],
CCc1cccc(NC(=O)c2cnc(SC)nc2-c2ccccc2)c1,inconclusive: -3.76% [at 46 µM],
CCOc1ccc(Sc2cc(C(=O)NC(C)CC)c3ccccc3n2)cc1 (centres undefined),inactive: 8.23% [at 46 µM],
O=C(c1cc2c(s1)-c1ccccc1OC2)N1CCCC1,inactive: -4.01%,
Cc1ccc(C(=O)OCC(=O)Nc2ccccc2Sc2ccccc2)cc1C,inconclusive: 6.07%,
N#Cc1ccc(C(=O)Nc2ccn(-c3ccccc3)n2)cc1,,"inconclusive: 35.5 µM [fluorescent, single point]"
COCCn1c(SCCOc2ccccc2)nc2ccccc2c1=O,,"inconclusive: 1.41 µM [inhibitor, full curve, poor fit]"
COc1cc(NC(=S)N2CCCCC2C)c(OC)cc1Cl (centres undefined),inactive: -12.5% [at 46 µM],
CN(C)C(C(=O)Nc1cc(Cl)cc(Cl)c1)c1ccccc1 (centres undefined),inconclusive: -14% [at 46 µM],
CC(Oc1ccc(F)cc1)C(=O)Nc1cc(-c2ccc(F)c(F)c2)no1 (centres undefined),inconclusive: 26.3% [at 46 µM],
Cc1ccc(S(=O)(=O)NCC2CCC(C(=O)N(C)Cc3ccccc3)CC2)cc1 (centres undefined),inconclusive: -1.46% [at 46 µM],
COCCCNC(=O)CSc1nc2ccccc2c(=O)n1Cc1ccco1,inactive: 3.36% [at 46 µM],
COc1cc(/C=C(/C#N)c2ccc(C)cc2)ccc1Oc1ccc([N+](=O)[O-])cn1,,"inconclusive: 15.8 µM [falling, partial curve]"
COc1cc(-c2ccc(N=Nc3ccc4c(S(=O)(=O)O)cc(S(=O)(=O)O)c(N)c4c3O)c(OC)c2)ccc1N=Nc1ccc2c(S(=O)(=O)O)cc(S(=O)(=O)O)c(N)c2c1O,inactive: -8.71%,

# Rewritten with bars between the fields: part of the list above.
SMILES | ratio change, negative = inhibition | Potency
C[C@H](Cc1ccccc1)Nc1ncnc2c1ncn2[C@@H]1O[C@H](CO)[C@H](O)[C@H]1O | inconclusive: -12.4% | 
O=C1C2C3C=CC(C2C(=O)N1c1ccccc1O)C1C2C(=O)N(c4ccccc4O)C(=O)C2C31 (centres undefined) | inconclusive: -12.2% [at 46 µM] | 
